Drawing on CN115010810A, this text covers binding for 1 molecule.

Results are given in words; binding and its absence hold for the method and conditions named. Some results given as binding are weak or reduced against the parent protein; the word gives no strength. Sequences can lack the tags named with a protein.

The assay deals with T1, 食蟹猴CTLA-4-His (cynomolgus monkey) (UniProt G7PL88).
T1 sequence: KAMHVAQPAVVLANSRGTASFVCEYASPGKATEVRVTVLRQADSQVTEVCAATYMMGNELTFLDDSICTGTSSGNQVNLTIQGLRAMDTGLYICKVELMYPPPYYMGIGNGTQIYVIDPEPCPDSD
The experiment in a line: ELISA, cynomolgus CTLA-4-His coated. (In general: ELISA stands for enzyme-linked immunosorbent assay.)

B1: HuC92-11 (antibody, V domains shown)
VH: QVQLVESGGGVVQPGRSLRLSCAASGFTFSNYAMSWVRQAPGKGLEWVAEISYSGTYSYHSDTVTGRFTISRDNSKNTLYLQMSSLRAEDTAVYYCTRRDYDNEMDYWGQGTLVTVSS
VL: DIQMTQSPSSLSASVGDRVTITCRTSQVITNYLNWYQQKPGKAPKLLIYYTSRLHSGVPSRFSGSGSGTDYTLTISSLQPEDFATYYCQQFGKRPPTFGGGTKVEIK
B1: the binding result is recorded as “binds”.
